# Plain letter strings leave the end groups untold.
# Test: peptide made by a vendor (peptide synthesis; HOBt)
# Settings: whole synthesis
sequence,measurement,value
EIWIAQEARRIGAEFNAYYAR (SW141 sigma-2 ligand conjugated; listed as Homo sapiens),final purity (method not given),˜95% purity

# Source: US8143222B2 (Washington University, priority 2007, dated 2012)
